Measurements reported in PubChem BioAssay AID504764 (Drosophila RNAi Screening Center, 2011)
The deposit covers about 22,000 reagents; below is an unselected part of those with a known target gene and a result. In the full data, 403 (1.9%) got an active call. 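Unnormalised raw counts per well; ratio z-scores behind the hit calls and whether each hit raises or lowers signal are not deposited.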 The numbers tell different reagents against one gene apart. Names joined by + are all predicted targets of the reagent. Not stated in the record: the amount of reagent.

- Assay: 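Genes whose knock-down alters Notch-dependent transcription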 (primary screen)
- System: Drosophila Kc167 cells
- Reagents: long dsRNA against Drosophila genes
- Timing: about 5 days (4 days dsRNA, then 24 h after transfection)
- Challenge: transfection of constitutively active membrane-tethered Notch lacking the extracellular domain, read 24 h later
- Measurement: 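Firefly luciferase from an E(spl)m3 reporter with active Notch, plus control-promoter and uninduced reporter wells for normalisation; unnormalised counts, duplicate wells a and b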
- Scale: induced reporter light, run 1, well a and induced reporter light, run 1, well b: higher = more light from the Notch target reporter with active Notch; control promoter light, run 1, well a and control promoter light, run 1, well b: higher = more light from the viral control promoter (cell number, transfection, viability); uninduced reporter light, run 1, well a: higher = more light from the Notch target reporter without active Notch
- Hit rule: 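Wells with low control signal or poorly matching duplicates excluded; duplicates averaged; per source plate, z beyond ±2 for induced/control log2 ratio or beyond ±1.8 for induced/uninduced marks a hit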
- Calls: active = modifier hit (raised or lowered Notch signal); inactive = not a hit

Target gene | reagent | induced reporter light, run 1, well a | induced reporter light, run 1, well b | control promoter light, run 1, well a | control promoter light, run 1, well b | uninduced reporter light, run 1, well a | outcome
r2d2 (GeneID 34066) | 1 | 1.21e5 | 1.58e5 | 99180 | 1.30e5 | 20290 | inactive
Idi (GeneID 42526) | 1 | 1.90e5 | 1.65e5 | 2.22e5 | 2.17e5 | 16480 | inactive
caz (GeneID 32587) | 1 | 40500 | 40345 | 32075 | 31695 | 2650 | inactive
dnr1 (GeneID 37575) | 1 | 1.14e5 | 89335 | 1.01e5 | 1.13e5 | 10320 | inactive
dnr1 (GeneID 37575) | 2 | 1.32e5 | 1.27e5 | 1.09e5 | 93590 | 9990 | inactive
CtIP (GeneID 40262) | 1 | 1.11e5 | 1.09e5 | 1.04e5 | 93840 | 6015 | inactive
CG7156 (GeneID 42187) | 1 | 1.52e5 | 1.68e5 | 2.16e5 | 2.27e5 | 15980 | inactive
CG33308 (GeneID 2768925) | 1 | 86245 | 91280 | 97630 | 86945 | 7132 | inactive
Cnot4 (GeneID 34416) | 1 | 1.18e5 | 1.52e5 | 69230 | 98195 | 16445 | inactive
Cnot4 (GeneID 34416) | 2 | 1.28e5 | 1.44e5 | 60660 | 91390 | 15555 | inactive
CG15226 (retired record) (GeneID 37353) | 1 | 1.04e5 | 87640 | 94270 | 1.28e5 | 9965 | inactive
CG15226 (retired record) (GeneID 37353) | 2 | 78390 | 64210 | 67075 | 73520 | 4040 | inactive
Noc2 (GeneID 35386) | 1 | 1.92e5 | 1.63e5 | 1.56e5 | 1.59e5 | 12205 | inactive
mRRF2 (GeneID 42670) | 1 | 1.64e5 | 1.88e5 | 1.92e5 | 2.02e5 | 14532 | inactive
CG9029 (GeneID 33815) | 1 | 1.67e5 | 1.41e5 | 1.40e5 | 1.43e5 | 10370 | inactive
Obp56g (GeneID 37270) | 1 | 33410 | 23030 | 29195 | 30115 | 3235 | inactive
CG11406 (GeneID 37877) | 1 | 1.34e5 | 1.55e5 | 1.89e5 | 2.15e5 | 8405 | inactive
CG11406 (GeneID 37877) | 2 | 1.98e5 | 2.12e5 | 2.06e5 | 1.92e5 | 16295 | inactive
CG33127 (GeneID 318893) | 1 | 1.39e5 | 1.08e5 | 1.64e5 | 1.82e5 | 8400 | inactive
Or56a (GeneID 37269) | 1 | 35245 | 34805 | 37855 | 36330 | 3195 | inactive
CG32428 (GeneID 50105) | 1 | 19315 | 20755 | 9785 | 11770 | 4920 | inactive
CG32428 (GeneID 50105) | 2 | 1.29e5 | 90070 | 1.14e5 | 1.04e5 | 8470 | inactive
yki (GeneID 37851) | 1 | 1.18e5 | 1.23e5 | 99160 | 1.20e5 | 9582 | inactive
DCAF12 (GeneID 41460) | 1 | 1.38e5 | 1.19e5 | 88285 | 71525 | 11750 | inactive
Prip (GeneID 36237) | 1 | 1.78e5 | 1.66e5 | 1.60e5 | 1.47e5 | 13885 | inactive
CG11317 (GeneID 43676) | 1 | 1.41e5 | 1.35e5 | 1.98e5 | 2.24e5 | 10575 | inactive
Graf (GeneID 32522) | 1 | 2.10e5 | 2.01e5 | 2.68e5 | 2.34e5 | 14455 | inactive
TwdlJ (GeneID 43206) | 1 | 1.38e5 | 1.60e5 | 2.05e5 | 1.96e5 | 11680 | inactive

Reprinted from the listing (5 entries):
Target gene | reagent | induced reporter light, run 1, well a | induced reporter light, run 1, well b | control promoter light, run 1, well a | control promoter light, run 1, well b | uninduced reporter light, run 1, well a | outcome
caz (GeneID 32587) | 1 | 40500 | 40345 | 32075 | 31695 | 2650 | inactive
dnr1 (GeneID 37575) | 1 | 1.14e5 | 89335 | 1.01e5 | 1.13e5 | 10320 | inactive
dnr1 (GeneID 37575) | 2 | 1.32e5 | 1.27e5 | 1.09e5 | 93590 | 9990 | inactive
CtIP (GeneID 40262) | 1 | 1.11e5 | 1.09e5 | 1.04e5 | 93840 | 6015 | inactive
CG7156 (GeneID 42187) | 1 | 1.52e5 | 1.68e5 | 2.16e5 | 2.27e5 | 15980 | inactive

Continued:
Target gene | reagent | induced reporter light, run 1, well a | induced reporter light, run 1, well b | control promoter light, run 1, well a | control promoter light, run 1, well b | uninduced reporter light, run 1, well a | outcome
Doc1 (GeneID 39039) | 1 | 2.44e5 | 2.53e5 | 2.76e5 | 2.20e5 | 10770 | inactive
Atg7 (GeneID 37141) | 1 | 1.17e5 | 1.04e5 | 1.87e5 | 1.25e5 | 7430 | inactive
Atg7 (GeneID 37141) | 2 | 1.18e5 | 1.11e5 | 1.30e5 | 1.12e5 | 8678 | inactive
lncRNA:CR42862 (GeneID 10178964) | 1 | 1.08e5 | 1.29e5 | 2.28e5 | 2.36e5 | 8165 | inactive
Spn42De (GeneID 35602) | 1 | 2.11e5 | 1.93e5 | 2.14e5 | 2.02e5 | 19135 | inactive
CG3156 (GeneID 30994) | 1 | 1.75e5 | 2.34e5 | 2.23e5 | 2.62e5 | 12885 | inactive
CG5556 (GeneID 33320) | 1 | 2.33e5 | 1.68e5 | 1.79e5 | 1.56e5 | 12650 | inactive
nst (GeneID 39434) | 1 | 1.86e5 | 2.26e5 | 1.50e5 | 90185 | 17550 | inactive
fiz (GeneID 32420) | 1 | 1.72e5 | 1.59e5 | 2.27e5 | 2.21e5 | 13365 | inactive
Cht7 + tRNA:Cys-GCA-1-4 + tRNA:Lys-CTT-1-13 | 1 | 1.57e5 | 1.72e5 | 1.47e5 | 1.79e5 | 12570 | inactive
CG18809 (GeneID 59170) | 1 | 1.14e5 | 1.26e5 | 1.48e5 | 1.81e5 | 15070 | inactive
CG14500 (GeneID 37087) | 1 | 1.11e5 | 79010 | 1.24e5 | 1.24e5 | 8295 | inactive
CG4953 (GeneID 34373) | 1 | 2.41e5 | 2.50e5 | 2.17e5 | 1.83e5 | 17980 | inactive
Drsl4 (GeneID 317954) | 1 | 1.73e5 | 1.47e5 | 2.08e5 | 2.01e5 | 14610 | inactive
CG34286 (GeneID 5740178) | 1 | 96930 | 99835 | 1.33e5 | 98735 | 10650 | inactive
eIF4E4 (GeneID 38743) | 1 | 1.15e5 | 1.34e5 | 1.20e5 | 1.01e5 | 6080 | inactive
GEFmeso (GeneID 37134) | 1 | 90485 | 81390 | 1.42e5 | 1.89e5 | 7860 | inactive
GEFmeso (GeneID 37134) | 2 | 39685 | 39425 | 45275 | 38450 | 5645 | inactive
CG7196 (retired record) (GeneID 34057) | 1 | 1.42e5 | 1.75e5 | 1.77e5 | 1.78e5 | 10395 | inactive
CG7196 (retired record) (GeneID 34057) | 2 | 1.24e5 | 1.47e5 | 1.15e5 | 1.51e5 | 17855 | inactive
Ppm1 (GeneID 38071) | 1 | 1.41e5 | 1.18e5 | 2.66e5 | 1.51e5 | 8850 | inactive
CG31777 (GeneID 261617) | 1 | 1.11e5 | 1.15e5 | 1.36e5 | 1.52e5 | 10340 | inactive
